This experiment concerns the target Fis nucleoid protein (UniProt P0A6R3). Put plainly: crystal structure; Fis co-crystallized with 27 bp DNA duplexes (F35, F1±8A, F1±8C, F1±8G, F31, F32); protein chains A and B in one asymmetric unit; space group C2 (F35) or P2_(1)2_(1)2_(1); data collected at 100 K; both purified.

Chains of the proteins cited; added tags and fusions are not shown.
UniProt P0A6R3: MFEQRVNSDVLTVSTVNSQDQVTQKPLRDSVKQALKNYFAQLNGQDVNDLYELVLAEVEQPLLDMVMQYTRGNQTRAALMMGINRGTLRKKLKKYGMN

These are yes or no findings as the source states them, for the method shown. Some entries that bind do so weakly or less than the wild type.

Turning to “Fis nucleoid protein (from UniProt P0A6R3 1-98)”, the binding entry is recorded as “binds”.

These data come from paper PMC4784862, “DNA Sequence Determinants Controlling Affinity, Stability and Shape of DNA Complexes Bound by the Nucleoid Protein Fis”.
